Results from the supplement of paper PMC10398353.
Values joined by “and” are separate entries in the source; they are usually repeats but may differ in a detail not shown here. Equal values may be shown once. Where a name gives a salt, the structure may show the parent alone. ± gives the standard deviation of the averaged measurements. The list shows a part of the results. The data scatter; read single values as rough.

Each molecule was assayed on Salmonella enterica serovar Typhimurium ST313 D23580 (assay: normalized bacterial growth (OD600 20 h minus 0 h, interquartile-mean normalized) (fraction of plate interquartile mean); higher = more bacterial growth (less inhibition)). Settings: LPM (pH 5.8, low phosphate, low Mg2+), concentration: 10 µM, temperature: 37 °C.

Row | SMILES | normalized bacterial growth
1 | CCCCN1CCC(COC(=O)c2cc(Cl)c(N)c3c2OCCO3)CC1 | 0.971
2 | COc1cccc(NC(=O)/C=C/c2ccc(Cl)cc2)c1 | 1.13
3 | FC(F)(F)c1ccccc1-n1ccnc1 [1-[2-(Trifluoromethyl)phenyl]imidazole] | 1.27
4 | CCCCOC(=O)NS(=O)(=O)c1sc(CC(C)C)cc1-c1ccc(Cn2c(CC)nc3c(C)cc(C)nc32)cc1 | 0.65
5 | O=C(O)CS | 0.97
6 | COc1cc2c3cc1Oc1cc(ccc1O)C[C@@H]1c4c(cc(OC)c(O)c4Oc4ccc(cc4)C[C@@H]3N(C)CC2)CC[N+]1(C)C | 0.976 and 0.567
7 | Cc1ncc(CO)c(CO)c1O [Pyridoxine hydrochloride] | 1.12
8 | Cc1ncc(CO)c(CO)c1O | 0.703
9 | CN1CCc2cc(Cl)c(O)cc2[C@@H](c2ccccc2)C1 | 1.21
10 | Nc1ccc(N2C(=O)c3ccccc3C2=O)c(Cl)c1 [N-(4-Amino-2-chlorophenyl)phthalimide] | 1.07
11 | CCc1c(C)[nH]c2c1C(=O)C(CN1CCOCC1)CC2 (stereo unspecified) [Molindone hydrochloride] | 0.727
12 | NC(=O)CNCCC(c1ccccc1)c1ccccc1 ["N-(3,3-Diphenylpropyl)glycinamide"] | 0.882
13 | COc1cc(C(=O)NCCCCCC(=O)O)cc(OC)c1OC | 1.03
14 | CC1=C(C(=O)O)N2C(=O)[C@@H](NC(=O)[C@H](N)C3=CCC=CC3)[C@H]2SC1 [Cephradine] | 1.2
15 | CC1=C(C(=O)O)N2C(=O)[C@@H](NC(=O)[C@H](N)C3=CCC=CC3)[C@H]2SC1 | 0.971 ± 0.054
16 | N[C@@H](CCC(=O)N[C@@H](CS)C(=O)NCC(=O)O)C(=O)O | 1.03
17 | CC1=C(/C=C/C(C)=C/C=C/C(C)=C/C(=O)O)C(C)(C)CCC1 | 0.844
18 | CC(=O)O[C@@H]1CC2C(C)(C)[C@H](O)C=C[C@]2(C)C2CC[C@@]3(C)[C@H](c4ccoc4)OC(=O)C4OC43[C@@]21C (stereo partly specified) | 0.927
19 | CC(O)C(O)[C@H]1CNc2nc(N)[nH]c(=O)c2N1 (stereo partly drawn) ["(6R)-5,6,7,8-Tetrahydro-L-biopterin hydrochloride"] | 1

Row | SMILES | normalized bacterial growth
20 | CC(C)=CC[C@@H](O)C1=CC(=O)c2c(O)ccc(O)c2C1=O | 1.11
21 | NC(=O)C1=CN(C2OC(COP(=O)(O)OP(=O)(O)OC[C@H]3O[C@@H](n4cnc5c(N)ncnc54)C(OP(=O)(O)O)[C@H]3O)C(O)C2O)C=CC1 (stereo partly specified) [NADPH tetrasodium] | 1.21
22 | CC(=O)Oc1ccccc1C(=O)O [Acetylsalicylic acid] | 1.35
23 | O=c1cc(-c2ccccc2)oc2cc(O)ccc12 | 1.17
24 | O=C(O)[C@H]1NCCC[C@H]1C(=O)O ["()-cis-Piperidine-2,3-dicarboxylic acid"] | 1.27
25 | CC1=C(/C=C/C(C)=C/C=C/C(C)=C/C=C/C=C(C)/C=C/C=C(C)/C=C/C2=C(C)C(=O)[C@@H](O)CC2(C)C)C(C)(C)C[C@H](O)C1=O [Astaxanthin] | 1.18
26 | COc1ccc2ccc(=O)oc2c1CC=C(C)C | 0.941
27 | N=C(N)NS(=O)(=O)c1ccc(N)cc1 | 0.515
28 | COc1cc2nc(N(C)CCCNC(=O)C3CCCO3)nc(N)c2cc1OC (stereo unspecified) [Alfuzosin hydrochloride] | 1.02
29 | Clc1ccc(Cn2c(CN3CCCC3)nc3ccccc32)cc1 [Clemizole hydrochloride] | 0.942
30 | O=C(O)/C=C/c1ccc(O)c(O)c1 [Caffeic acid] | 1.3
31 | O=C(O)/C=C/c1ccc(O)c(O)c1 | 0.924
32 | OCC1OC(n2cnc3c(NC4CCCCC4)ncnc32)C(O)C1O (stereo unspecified) [N6-Cyclohexyladenosine] | 1.13
33 | N[C@@H](Cc1c[nH]c2ccc(O)cc12)C(=O)O [5-Hydroxy-L-tryptophan] | 1.11
34 | CCCCCCCCCCCCCCCC(=O)OC[C@@H](NC(=O)C(Cl)Cl)[C@H](O)c1ccc([N+](=O)[O-])cc1 | 1.16
35 | O=C(O)COCCN1CCN(C(c2ccccc2)c2ccc(Cl)cc2)CC1 (stereo unspecified) [Cetirizine dihydrochloride] | 1.26
36 | C#C[C@]1(OC(C)=O)CC[C@H]2[C@@H]3CCC4=CC(=NO)CC[C@@H]4[C@H]3CC[C@@]21CC (mixture of isomers) | 1.12
37 | COc1ccc2cc([C@H](C)CO)ccc2c1 | 0.887
38 | CC(=O)O[C@]1(C(C)=O)CC[C@H]2[C@@H]3C=C(Cl)C4=CC(=O)[C@@H]5C[C@@H]5[C@]4(C)[C@H]3CC[C@@]21C [Cyproterone acetate] | 0.888

An excerpt of these results, tab-delimited.
Row	SMILES	normalized bacterial growth
9	CN1CCc2cc(Cl)c(O)cc2[C@@H](c2ccccc2)C1	1.21
15	CC1=C(C(=O)O)N2C(=O)[C@@H](NC(=O)[C@H](N)C3=CCC=CC3)[C@H]2SC1	0.971 ± 0.054
30	O=C(O)/C=C/c1ccc(O)c(O)c1 [Caffeic acid]	1.3
31	O=C(O)/C=C/c1ccc(O)c(O)c1	0.924
33	N[C@@H](Cc1c[nH]c2ccc(O)cc12)C(=O)O [5-Hydroxy-L-tryptophan]	1.11

The listing continues:

Row | SMILES | normalized bacterial growth
39 | CC(=O)O[C@]1(C(C)=O)CC[C@H]2[C@@H]3C=C(Cl)C4=CC(=O)[C@@H]5C[C@@H]5[C@]4(C)[C@H]3CC[C@@]21C | 0.82
40 | O=C(O)C1CCCN(CCC=C(c2ccccc2)c2ccccc2)C1 (stereo unspecified) | 1
41 | Clc1ccc(CO/N=C(\Cn2ccnc2)c2ccc(Cl)cc2Cl)c(Cl)c1 | 0.859
42 | Nc1ncnc2c1ncn2[C@@H]1O[C@H](CO)[C@@H](O)[C@H]1O [Adenosine] | 1.1
43 | Nc1ncnc2c1ncn2[C@@H]1O[C@H](CO)[C@@H](O)[C@H]1O | 1.11
44 | Clc1ccc(CSC(Cn2ccnc2)c2ccc(Cl)cc2Cl)cc1 (stereo unspecified) | 1.18
45 | C[n+]1cc2c3c(ccc2c2ccc4cc5c(cc4c21)OCO5)OCO3 | 0.9 and 0.505
46 | C[n+]1cc2c3c(ccc2c2ccc4cc5c(cc4c21)OCO5)OCO3 [Sanguinarine chloride] | 0.761
47 | COc1ccc2c(c1)OCC(Cc1ccc(O)c(OC)c1)C2=O (stereo unspecified) | 1.3
48 | COc1ccccc1N1CCN(CCN(C(=O)C2CCCCC2)c2ccccn2)CC1 | 0.981
49 | CN(C)CCN(Cc1ccccc1)c1ccccn1 | 0.902
50 | C=CC1=C(C)c2cc3[nH]c(cc4nc(cc5[nH]c(cc1n2)c(C)c5CCC(=O)O)C(CCC(=O)O)=C4C)c(C)c3C=C [Protoporphyrin IX disodium] | 0.991
51 | O=C(O)CCCCCCCCCCCC[C@@H]1C=CCC1 | 1.04
52 | COc1cc(OC)c2c(=O)c(O)c(-c3ccc(OC)c(OC)c3)oc2c1 | 0.939
53 | CNCc1ccccc1 | 1.05
54 | N[C@@H](Cc1cc(I)c(Oc2cc(I)c(O)c(I)c2)c(I)c1)C(=O)O | 0.787
55 | Cc1cc(=O)oc2cc(O)c(O)cc12 | 0.908
56 | COc1cc(O)c(C(C)=O)c(O)c1 | 1.19
